These results are taken from publication PMC7825749.

Protein sequences, listed by entry. Tags and fused reporters are not part of them.
UniProt Q16665: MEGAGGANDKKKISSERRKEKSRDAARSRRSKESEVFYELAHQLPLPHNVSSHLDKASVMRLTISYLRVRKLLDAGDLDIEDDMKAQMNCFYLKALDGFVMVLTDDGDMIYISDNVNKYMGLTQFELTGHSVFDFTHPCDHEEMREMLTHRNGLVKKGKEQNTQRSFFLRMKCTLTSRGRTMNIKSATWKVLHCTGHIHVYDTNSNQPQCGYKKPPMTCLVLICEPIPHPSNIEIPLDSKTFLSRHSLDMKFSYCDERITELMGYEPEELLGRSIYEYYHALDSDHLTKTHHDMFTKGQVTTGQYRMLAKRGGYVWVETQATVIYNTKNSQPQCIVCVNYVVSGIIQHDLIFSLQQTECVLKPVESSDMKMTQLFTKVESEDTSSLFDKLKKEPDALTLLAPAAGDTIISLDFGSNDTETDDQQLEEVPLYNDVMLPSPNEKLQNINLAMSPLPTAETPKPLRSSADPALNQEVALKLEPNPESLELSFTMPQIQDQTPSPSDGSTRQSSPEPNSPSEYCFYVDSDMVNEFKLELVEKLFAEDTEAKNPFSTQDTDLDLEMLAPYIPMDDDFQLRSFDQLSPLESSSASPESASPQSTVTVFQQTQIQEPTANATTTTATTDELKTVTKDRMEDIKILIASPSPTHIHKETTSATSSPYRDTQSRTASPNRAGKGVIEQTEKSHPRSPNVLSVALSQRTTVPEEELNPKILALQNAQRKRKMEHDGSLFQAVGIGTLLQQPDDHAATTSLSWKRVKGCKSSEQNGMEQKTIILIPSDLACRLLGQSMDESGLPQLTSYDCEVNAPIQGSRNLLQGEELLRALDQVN
UniProt Q13887: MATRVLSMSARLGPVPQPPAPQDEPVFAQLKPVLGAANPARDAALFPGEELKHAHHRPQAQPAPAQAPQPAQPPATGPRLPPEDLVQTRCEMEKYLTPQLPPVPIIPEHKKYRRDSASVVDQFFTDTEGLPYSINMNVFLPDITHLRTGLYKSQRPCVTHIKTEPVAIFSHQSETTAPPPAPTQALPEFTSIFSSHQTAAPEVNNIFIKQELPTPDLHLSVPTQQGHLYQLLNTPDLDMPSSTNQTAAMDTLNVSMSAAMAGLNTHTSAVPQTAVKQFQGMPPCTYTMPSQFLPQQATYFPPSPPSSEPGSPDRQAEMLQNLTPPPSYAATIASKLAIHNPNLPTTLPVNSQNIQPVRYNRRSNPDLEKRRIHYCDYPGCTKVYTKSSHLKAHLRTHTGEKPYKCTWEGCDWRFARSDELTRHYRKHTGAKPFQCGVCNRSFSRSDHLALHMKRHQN

Results are given in words; binding and its absence hold for the method and conditions named. In cells and extracts the contact can be indirect. Some results given as binding are weak or reduced against the parent protein; the word gives no strength.

The target of experiment [1] is HIF-1α (human (endogenous in BCPAP and TPC-1)) (UniProt Q16665). As to the kind of experiment: co-IP; lysates of BCPAP and TPC-1 PTC cells immunoprecipitated with HIF-1α antibody or IgG, immunoblot for KLF5.
The target of experiment [2] is Krüppel-like factor 5 (KLF5) (human (endogenous in BCPAP and TPC-1)) (UniProt Q13887). As to the kind of experiment: co-IP; lysates of BCPAP and TPC-1 PTC cells immunoprecipitated with KLF5 antibody or IgG, immunoblot for HIF-1α; also after treatment of the cells with ML264 at indicated doses for 6 h (binding markedly decreased).

Consider “Krüppel-like factor 5 (KLF5) (from UniProt Q13887 1-457)”, for which, in experiment [1], the binding result is “binds”.

For HIF-1α (from UniProt Q16665 1-826), the binding result in experiment [2] is given as “binds”.
